Results are given in words; binding and its absence hold for the method and conditions named. For some of these results: In cells and extracts the contact can be indirect. Some results given as binding are weak or reduced against the parent protein; the word gives no strength. For some of these results: Sequences can lack the tags named with a protein.
How the values were obtained:
[1] = biological target: MSL10^S640L_(461-734), C-terminal half of MSL10 with the S640L lesion, split-ubiquitin fusion (Arabidopsis thaliana) (UniProt Q9LYG9); test: two-hybrid
[2] = biological target: MSL10_(461-734), C-terminal half of MSL10, split-ubiquitin fusion (Arabidopsis thaliana) (UniProt Q9LYG9); test: two-hybrid
[3] = biological target: MSL10_(553-734)-YN, soluble C-terminus of MSL10 (BiFC fusion) (Arabidopsis thaliana) (UniProt Q9LYG9); test: split reporter
[4] = biological target: MSL10_(1-164)-YC, soluble N-terminus of MSL10 (BiFC fusion) (Arabidopsis thaliana) (UniProt Q9LYG9); test: split reporter
[5] = biological target: MSL10^S640L_(553-734), soluble C-terminus of MSL10 with the S640L lesion (BiFC fusion) (Arabidopsis thaliana) (UniProt Q9LYG9); test: split reporter
[6] = biological target: MSL10-YN / MSL10-YC (BiFC fusion) (Arabidopsis thaliana) (UniProt Q9LYG9); test: split reporter
[7] = biological target: MSL10 (MscS-Like 10), split-ubiquitin fusion (Arabidopsis thaliana) (UniProt Q9LYG9); test: two-hybrid
[8] = biological target: MSL10_(553-734), soluble C-terminus of MSL10, split-ubiquitin fusion (Arabidopsis thaliana) (UniProt Q9LYG9); test: two-hybrid
[9] = biological target: MSL10^S640L_(553-734), soluble C-terminus of MSL10 with the S640L lesion, split-ubiquitin fusion (Arabidopsis thaliana) (UniProt Q9LYG9); test: two-hybrid
[10] = biological target: T1, MSL10_(1-164)-YC, soluble N-terminus of MSL10 (BiFC fusion) (Arabidopsis thaliana), Q9LYG9; test: split reporter; conditions: remark: other sources report otherwise
T1 chain: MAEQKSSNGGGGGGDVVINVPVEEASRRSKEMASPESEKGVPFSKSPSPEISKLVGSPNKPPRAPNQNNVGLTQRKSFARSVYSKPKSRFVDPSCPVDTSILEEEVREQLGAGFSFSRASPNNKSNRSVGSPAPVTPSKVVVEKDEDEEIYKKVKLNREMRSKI

By UniProt entry, the sequences of proteins in these tests, tags left out.
UniProt Q39128: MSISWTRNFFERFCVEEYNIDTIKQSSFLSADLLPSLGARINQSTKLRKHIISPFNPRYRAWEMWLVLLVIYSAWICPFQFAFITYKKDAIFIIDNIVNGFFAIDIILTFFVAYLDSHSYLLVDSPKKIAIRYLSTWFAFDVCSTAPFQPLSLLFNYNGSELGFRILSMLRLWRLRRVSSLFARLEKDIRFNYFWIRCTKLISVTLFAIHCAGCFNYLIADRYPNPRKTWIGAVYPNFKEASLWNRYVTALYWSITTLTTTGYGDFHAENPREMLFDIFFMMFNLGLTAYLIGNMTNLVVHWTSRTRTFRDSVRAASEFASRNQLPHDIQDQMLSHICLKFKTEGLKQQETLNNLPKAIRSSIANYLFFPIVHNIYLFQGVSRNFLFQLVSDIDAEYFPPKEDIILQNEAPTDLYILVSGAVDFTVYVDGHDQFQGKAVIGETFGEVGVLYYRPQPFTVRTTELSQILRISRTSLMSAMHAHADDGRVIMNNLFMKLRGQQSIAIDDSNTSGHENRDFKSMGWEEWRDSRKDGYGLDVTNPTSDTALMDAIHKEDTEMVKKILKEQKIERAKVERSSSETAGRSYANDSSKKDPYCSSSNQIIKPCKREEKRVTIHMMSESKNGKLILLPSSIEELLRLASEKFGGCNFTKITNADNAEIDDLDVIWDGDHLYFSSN

MSL10_(1-164), soluble N-terminus of MSL10, split-ubiquitin fusion (from UniProt Q9LYG9 1-164) (domain or fragment)
binding [1]: binds | binding [2]: binds

KAT1 (BiFC fusion) (from UniProt Q39128 1-677)
binding [3]: no binding | binding [4]: no binding | binding [5]: no binding

MSL10-YN / MSL10-YC (BiFC fusion) (from UniProt Q9LYG9 1-734)
binding [6]: binds

MSL10_(1-460)-YC, N-terminal half of MSL10 (BiFC fusion) (from UniProt Q9LYG9 1-460) (domain or fragment)
binding [3]: binds | binding [5]: binds

MSL10 (MscS-Like 10), split-ubiquitin fusion (from UniProt Q9LYG9 1-734)
binding [7]: binds

MSL10_(553-734)-YN, soluble C-terminus of MSL10 (BiFC fusion) (from UniProt Q9LYG9 553-734) (domain or fragment)
binding [3]: no binding

MSL10_(1-460), N-terminal half of MSL10, split-ubiquitin fusion (from UniProt Q9LYG9 1-460) (domain or fragment)
binding [1]: binds | binding [2]: binds | binding [8]: binds | binding [9]: binds

MSL10_(1-164)-YC, soluble N-terminus of MSL10 (BiFC fusion) (from UniProt Q9LYG9 1-164) (domain or fragment)
binding [3]: binds | binding [5]: binds

KAT1, split-ubiquitin fusion (from UniProt Q39128 1-677)
binding [7]: no binding

B1: MSL9, split-ubiquitin fusion (protein, UniProt Q84M97 1-742)
chain: MAERRVSNGEEVVINVSDKEDSKDPRASPSFNPLASPDSDAGIEKSKPVPPISIPTPEIYKFSGSVHKPPKIPSPEGLVRRKSLSRSIYSKPKSRFGEQQSFRYDSTREENGGRSLREQFGAGSFARGSFDRASPNNKSNRSVASAALSKVAEEEPDENEEIYKKVKLHRVKRSGMKPLAFLELVVFMAILGALIVSLTIDVVNKHTIWGLEFWKWCVLVMVTLSGMLVTNWFMHFVVFIIEKNYLLRKKVLYFVHGLKKNVQVFIWFSLVLIAWICLFDGDVKRTRKTKRFLDFITWTIVSLLVGSILFLVKTFALKVLASKFNVRNFFERIQESVFHQYVLQTLSGPPLIEEAENVGRVPSTGHLSFTRTKDGKVKDKKVIDMGKVHRMKQEKVSAWTMRVLIEAVGTSGISTISSTLDEVNNKKERTDKEITNEMEAVAAAYDVFNNVAKPNHNYIEEDDLLRFMIKEEVDLVLPLIEDADTGKITRKTFTEWVVNVYTSRKTIGHSLNDTKTAVKQLDKLITGILTVITFIVWMVLLDIASTKLLLVFSSQFLGLAFMIGSTCKNIFESFMFVFVMHPYDVGDRCVVDGVMLLVEEIDLLTTVFLKIDNEKVFYPNSVLISKPISNFYRSPDMGDYVDFGIAFSTPAEKIGCLKGKIGEYLVANSQHWYPEAQVMVRAIENMNKLVLNILVQHTINFQVYVEKSLRRTALIIAIKRILEDLEIDYTLLPQDVNLTGHK
binding [7]: no binding

B2: MSL9 (BiFC fusion) (protein, UniProt Q84M97 1-742)
chain: MAERRVSNGEEVVINVSDKEDSKDPRASPSFNPLASPDSDAGIEKSKPVPPISIPTPEIYKFSGSVHKPPKIPSPEGLVRRKSLSRSIYSKPKSRFGEQQSFRYDSTREENGGRSLREQFGAGSFARGSFDRASPNNKSNRSVASAALSKVAEEEPDENEEIYKKVKLHRVKRSGMKPLAFLELVVFMAILGALIVSLTIDVVNKHTIWGLEFWKWCVLVMVTLSGMLVTNWFMHFVVFIIEKNYLLRKKVLYFVHGLKKNVQVFIWFSLVLIAWICLFDGDVKRTRKTKRFLDFITWTIVSLLVGSILFLVKTFALKVLASKFNVRNFFERIQESVFHQYVLQTLSGPPLIEEAENVGRVPSTGHLSFTRTKDGKVKDKKVIDMGKVHRMKQEKVSAWTMRVLIEAVGTSGISTISSTLDEVNNKKERTDKEITNEMEAVAAAYDVFNNVAKPNHNYIEEDDLLRFMIKEEVDLVLPLIEDADTGKITRKTFTEWVVNVYTSRKTIGHSLNDTKTAVKQLDKLITGILTVITFIVWMVLLDIASTKLLLVFSSQFLGLAFMIGSTCKNIFESFMFVFVMHPYDVGDRCVVDGVMLLVEEIDLLTTVFLKIDNEKVFYPNSVLISKPISNFYRSPDMGDYVDFGIAFSTPAEKIGCLKGKIGEYLVANSQHWYPEAQVMVRAIENMNKLVLNILVQHTINFQVYVEKSLRRTALIIAIKRILEDLEIDYTLLPQDVNLTGHK
binding [3]: no binding | binding [4]: no binding | binding [5]: no binding

B3: MSL10_(1-164)-YC, soluble N-terminus of MSL10 (BiFC fusion), Q9LYG9 1-164 (domain or fragment)
chain: MAEQKSSNGGGGGGDVVINVPVEEASRRSKEMASPESEKGVPFSKSPSPEISKLVGSPNKPPRAPNQNNVGLTQRKSFARSVYSKPKSRFVDPSCPVDTSILEEEVREQLGAGFSFSRASPNNKSNRSVGSPAPVTPSKVVVEKDEDEEIYKKVKLNREMRSKI
binding [10]: no binding

Source: paper doi:10.1101/726521
